Reference: PMC2690654
No constants are given. Whether binding was seen depends on the method and setting. For part of these data: In cells and extracts the contact can be indirect. Some binding calls cover weakened binding; strength is not graded here.

Protein sequences, listed by entry. Tags and fused reporters are not part of them. Residues count along the entry.
UniProt P06761, residues 19-654: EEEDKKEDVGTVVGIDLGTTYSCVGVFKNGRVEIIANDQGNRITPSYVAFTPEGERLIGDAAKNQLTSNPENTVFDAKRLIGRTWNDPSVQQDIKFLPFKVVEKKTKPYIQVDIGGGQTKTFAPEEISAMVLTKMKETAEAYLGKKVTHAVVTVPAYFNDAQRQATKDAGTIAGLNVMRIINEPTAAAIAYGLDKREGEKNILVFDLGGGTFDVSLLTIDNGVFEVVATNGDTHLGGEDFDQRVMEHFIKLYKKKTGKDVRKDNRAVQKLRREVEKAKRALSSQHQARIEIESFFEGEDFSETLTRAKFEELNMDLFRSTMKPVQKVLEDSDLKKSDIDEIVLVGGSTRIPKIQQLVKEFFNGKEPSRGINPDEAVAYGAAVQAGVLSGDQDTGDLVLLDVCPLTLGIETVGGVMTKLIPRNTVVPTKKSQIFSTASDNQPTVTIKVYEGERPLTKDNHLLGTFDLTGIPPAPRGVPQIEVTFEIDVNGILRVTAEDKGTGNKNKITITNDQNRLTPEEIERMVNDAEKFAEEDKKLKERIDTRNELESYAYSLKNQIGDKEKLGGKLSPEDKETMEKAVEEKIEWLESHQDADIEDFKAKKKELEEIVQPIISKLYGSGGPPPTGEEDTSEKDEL
UniProt P30904: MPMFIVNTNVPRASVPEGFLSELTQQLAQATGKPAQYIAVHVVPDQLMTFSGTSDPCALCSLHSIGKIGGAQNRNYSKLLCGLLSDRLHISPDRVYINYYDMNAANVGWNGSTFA

T1: α1-inhibitor III (rat (endogenous in bladder)) (UniProt P14046)
T1 sequence: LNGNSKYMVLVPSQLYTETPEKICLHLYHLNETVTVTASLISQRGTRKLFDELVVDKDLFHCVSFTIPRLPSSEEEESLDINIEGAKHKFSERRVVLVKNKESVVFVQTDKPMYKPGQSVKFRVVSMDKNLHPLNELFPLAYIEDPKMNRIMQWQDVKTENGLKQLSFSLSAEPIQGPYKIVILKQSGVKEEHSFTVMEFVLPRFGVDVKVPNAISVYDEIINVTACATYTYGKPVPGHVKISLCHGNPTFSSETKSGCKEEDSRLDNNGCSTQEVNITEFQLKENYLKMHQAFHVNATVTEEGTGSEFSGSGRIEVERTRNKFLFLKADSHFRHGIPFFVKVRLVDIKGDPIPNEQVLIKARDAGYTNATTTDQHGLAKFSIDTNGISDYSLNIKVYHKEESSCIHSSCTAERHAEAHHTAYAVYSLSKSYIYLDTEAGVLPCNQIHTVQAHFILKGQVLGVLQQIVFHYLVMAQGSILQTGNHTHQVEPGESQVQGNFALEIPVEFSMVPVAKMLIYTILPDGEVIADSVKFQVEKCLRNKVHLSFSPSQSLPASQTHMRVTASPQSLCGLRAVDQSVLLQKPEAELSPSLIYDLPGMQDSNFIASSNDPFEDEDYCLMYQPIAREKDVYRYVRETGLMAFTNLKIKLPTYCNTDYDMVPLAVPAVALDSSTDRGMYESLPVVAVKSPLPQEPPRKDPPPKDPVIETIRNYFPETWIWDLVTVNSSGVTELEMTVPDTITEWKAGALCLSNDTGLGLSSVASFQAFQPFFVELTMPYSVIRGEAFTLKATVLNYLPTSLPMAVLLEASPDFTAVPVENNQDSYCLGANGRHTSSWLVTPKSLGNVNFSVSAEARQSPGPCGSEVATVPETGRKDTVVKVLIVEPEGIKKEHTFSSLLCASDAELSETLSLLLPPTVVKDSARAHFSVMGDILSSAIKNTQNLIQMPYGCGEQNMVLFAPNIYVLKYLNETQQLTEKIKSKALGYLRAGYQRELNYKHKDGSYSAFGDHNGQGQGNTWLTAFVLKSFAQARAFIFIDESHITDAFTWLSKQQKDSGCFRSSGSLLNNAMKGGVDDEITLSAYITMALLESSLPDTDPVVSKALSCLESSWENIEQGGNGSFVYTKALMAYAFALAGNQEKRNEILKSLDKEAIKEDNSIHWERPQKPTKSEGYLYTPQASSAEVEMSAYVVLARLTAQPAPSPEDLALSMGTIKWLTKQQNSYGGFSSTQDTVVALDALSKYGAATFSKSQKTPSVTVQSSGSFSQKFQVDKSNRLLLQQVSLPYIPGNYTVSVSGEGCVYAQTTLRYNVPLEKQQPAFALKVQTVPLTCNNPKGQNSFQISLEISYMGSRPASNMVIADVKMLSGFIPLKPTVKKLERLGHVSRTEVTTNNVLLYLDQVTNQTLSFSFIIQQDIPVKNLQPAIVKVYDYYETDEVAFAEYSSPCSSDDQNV

B1: α1-inhibitor III (protein, UniProt P14046 25-1477)
chain: LNGNSKYMVLVPSQLYTETPEKICLHLYHLNETVTVTASLISQRGTRKLFDELVVDKDLFHCVSFTIPRLPSSEEEESLDINIEGAKHKFSERRVVLVKNKESVVFVQTDKPMYKPGQSVKFRVVSMDKNLHPLNELFPLAYIEDPKMNRIMQWQDVKTENGLKQLSFSLSAEPIQGPYKIVILKQSGVKEEHSFTVMEFVLPRFGVDVKVPNAISVYDEIINVTACATYTYGKPVPGHVKISLCHGNPTFSSETKSGCKEEDSRLDNNGCSTQEVNITEFQLKENYLKMHQAFHVNATVTEEGTGSEFSGSGRIEVERTRNKFLFLKADSHFRHGIPFFVKVRLVDIKGDPIPNEQVLIKARDAGYTNATTTDQHGLAKFSIDTNGISDYSLNIKVYHKEESSCIHSSCTAERHAEAHHTAYAVYSLSKSYIYLDTEAGVLPCNQIHTVQAHFILKGQVLGVLQQIVFHYLVMAQGSILQTGNHTHQVEPGESQVQGNFALEIPVEFSMVPVAKMLIYTILPDGEVIADSVKFQVEKCLRNKVHLSFSPSQSLPASQTHMRVTASPQSLCGLRAVDQSVLLQKPEAELSPSLIYDLPGMQDSNFIASSNDPFEDEDYCLMYQPIAREKDVYRYVRETGLMAFTNLKIKLPTYCNTDYDMVPLAVPAVALDSSTDRGMYESLPVVAVKSPLPQEPPRKDPPPKDPVIETIRNYFPETWIWDLVTVNSSGVTELEMTVPDTITEWKAGALCLSNDTGLGLSSVASFQAFQPFFVELTMPYSVIRGEAFTLKATVLNYLPTSLPMAVLLEASPDFTAVPVENNQDSYCLGANGRHTSSWLVTPKSLGNVNFSVSAEARQSPGPCGSEVATVPETGRKDTVVKVLIVEPEGIKKEHTFSSLLCASDAELSETLSLLLPPTVVKDSARAHFSVMGDILSSAIKNTQNLIQMPYGCGEQNMVLFAPNIYVLKYLNETQQLTEKIKSKALGYLRAGYQRELNYKHKDGSYSAFGDHNGQGQGNTWLTAFVLKSFAQARAFIFIDESHITDAFTWLSKQQKDSGCFRSSGSLLNNAMKGGVDDEITLSAYITMALLESSLPDTDPVVSKALSCLESSWENIEQGGNGSFVYTKALMAYAFALAGNQEKRNEILKSLDKEAIKEDNSIHWERPQKPTKSEGYLYTPQASSAEVEMSAYVVLARLTAQPAPSPEDLALSMGTIKWLTKQQNSYGGFSSTQDTVVALDALSKYGAATFSKSQKTPSVTVQSSGSFSQKFQVDKSNRLLLQQVSLPYIPGNYTVSVSGEGCVYAQTTLRYNVPLEKQQPAFALKVQTVPLTCNNPKGQNSFQISLEISYMGSRPASNMVIADVKMLSGFIPLKPTVKKLERLGHVSRTEVTTNNVLLYLDQVTNQTLSFSFIIQQDIPVKNLQPAIVKVYDYYETDEVAFAEYSSPCSSDDQNV

Key:
[1] = biological target: T1, α1-inhibitor III (rat (endogenous in bladder)); test: bands reactive in both MIF and A1-I3 western blots after SDS-PAGE; GRP78 immunoprecipitates of rat bladder homogenates; the same samples blotted for MIF and for A1-I3; bands at 130 and 80 kDa seen in both blots
[2] = biological target: glucose regulated protein 78 (rat (endogenous in bladder)) (UniProt P06761); test: co-IP; rat bladder homogenates (250 µg protein; rats treated with saline or substance P) immunoprecipitated with GRP78 polyclonal antibody (5 µg) and protein G agarose; SDS-PAGE; western blotting for MIF or A1-I3

Molecule	binding [1]	binding [2]
Macrophage migration inhibitory factor (from UniProt P30904 1-115) (ligand)	binds	binds
B1		binds
